The results in this text go back to the supplement of paper PMC10735217.

The assay relates to HEK293A TEAD-LUC reporter. Description: TEAD-luciferase reporter activity (YAP activation), robust Z score vs plate; higher = stronger YAP/TEAD activation. The following applies: 24 h. In general terms: Reporter assays use an easily measured gene product as a stand-in for the process of interest.

Structures can show the parent of a compound that is named as a salt. The list shows a part of the results. This data set is noisy: repeats of one test often differ as much as different tests do.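 In a drug-repurposing library screen, luminescence reads luciferase driven by eight TEAD-binding elements, stably integrated into human kidney-derived cells. Compounds scoring over five robust Z scores above the plate mean are called hits.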

`CCc1nn(CCCN2CCN(c3cccc(Cl)c3)CC2)c(=O)n1CCOc1ccccc1` [nefazodone hydrochloride]: under “compound concentration: 2 uM”, the TEAD-luciferase reporter activity was inactive: -1.45.

As for `CCc1nn(CCCN2CCN(c3cccc(Cl)c3)CC2)c(=O)n1CCOc1ccccc1` [Nefazodone], the TEAD-luciferase reporter activity was inactive: -1.94 (compound concentration: 200 nM) and inactive: -0.678 (compound concentration: 10 uM).

Regarding `N=C1CCCN1Cc1[nH]c(=O)[nH]c(=O)c1Cl` [Tipiracil hydrochloride], the TEAD-luciferase reporter activity (compound concentration: 200 nM) is inactive: -0.338, the TEAD-luciferase reporter activity (compound concentration: 2 uM) was inactive: 2.11 and the TEAD-luciferase reporter activity (compound concentration: 10 uM) is inactive: -1.25.

Take `OC1CCCc2nc3ccccc3c(NCc3ccccc3)c21` (configuration not stated) [Suronacrine maleate]: the TEAD-luciferase reporter activity is inactive: -1.73 (compound concentration: 200 nM), inactive: -0.759 (compound concentration: 2 uM) and inactive: -0.518 (compound concentration: 10 uM).

As to `CC(C(=O)O)c1ccc2c(c1)Cc1cccnc1O2` (configuration not stated) [pranoprofen], the TEAD-luciferase reporter activity is, setting by setting: (compound concentration: 200 nM) inactive: 0.25; (compound concentration: 2 uM) inactive: 0.853; (compound concentration: 10 uM) active: 7.08.

For `CCOC(=O)C1CCN(c2nc(N(C)S(=O)(=O)c3ccccc3)ccc2[N+](=O)[O-])CC1`, the TEAD-luciferase reporter activity reads like this: (compound concentration: 200 nM) inactive: 0.692; (compound concentration: 2 uM) inactive: 0.403; (compound concentration: 10 uM) inactive: 1.37.

Take `O=C(O)c1cc2ccccc2s1`: the TEAD-luciferase reporter activity reads like this: (compound concentration: 200 nM) inactive: -0.0687; (compound concentration: 2 uM) inactive: -2.74; (compound concentration: 10 uM) inactive: -0.869.

On to `NC(=O)c1ncn2c(=O)n(CCCl)nnc12` [Mitozolomide], for which the TEAD-luciferase reporter activity is, setting by setting: (compound concentration: 200 nM) inactive: -0.78; (compound concentration: 2 uM) inactive: -1.57; (compound concentration: 10 uM) inactive: 3.52.

Turning to `CSCC[C@H](NC(=O)[C@H](CC(C)C)NC(=O)[C@@H](Cc1c[nH]c2ccccc12)NC(=O)[C@H](Cc1ccccc1)N(C)C(=O)[C@@H](Cc1c[nH]c2ccccc12)NC(=O)[C@@H](N)CCCNC(=N)N)C(N)=O` [Antagonist-G], the TEAD-luciferase reporter activity reads like this: (compound concentration: 200 nM) inactive: -0.792; (compound concentration: 2 uM) inactive: 1.12; (compound concentration: 10 uM) inactive: -1.08.

For the molecule `O=C(O)Cc1cccc2c(=O)cc(-c3ccccc3)oc12` [Mitoflaxone], the TEAD-luciferase reporter activity reads like this: (compound concentration: 200 nM) inactive: -0.893; (compound concentration: 2 uM) inactive: -0.641; (compound concentration: 10 uM) inactive: -1.47.

For `CO[C@H]1CC[C@H](N(c2cc(C3=CCCCC3)sc2C(=O)O)C(=O)[C@H]2CC[C@H](C)CC2)CC1`, the TEAD-luciferase reporter activity by setting is: (compound concentration: 200 nM) inactive: -0.324; (compound concentration: 2 uM) inactive: 0.597; (compound concentration: 10 uM) inactive: -2.97.

For `NC(=O)[C@@H](CCC(F)(F)F)N(Cc1ccc(-c2ncon2)cc1F)S(=O)(=O)c1ccc(Cl)cc1` [avagacestat], the TEAD-luciferase reporter activity runs as follows: (compound concentration: 200 nM) inactive: -1.19; (compound concentration: 2 uM) inactive: -1.24; (compound concentration: 10 uM) inactive: 0.263.

`CCOC(CN1CCN(c2ccccc2OC)CC1)c1cccnc1` (configuration not stated): the TEAD-luciferase reporter activity by setting is: (compound concentration: 200 nM) inactive: -1.13; (compound concentration: 2 uM) inactive: 1.5; (compound concentration: 10 uM) inactive: 2.92.

In the case of `CCN(CC)CCNC(=O)c1cc(C#N)c(Cl)cc1OC`, the TEAD-luciferase reporter activity by setting is: (compound concentration: 200 nM) inactive: -2.03; (compound concentration: 2 uM) inactive: 1.19; (compound concentration: 10 uM) inactive: 0.227.

With `CC(C)NCC(O)COc1ccc(OCCOCCc2ccc(F)cc2)cc1` (configuration not stated), the TEAD-luciferase reporter activity is inactive: -0.558 (compound concentration: 200 nM), inactive: -0.554 (compound concentration: 2 uM) and inactive: -1.71 (compound concentration: 10 uM).

Consider `CCOC(=O)c1ccc2[nH]c3c(OC)c4[nH]c5ccc(C(=O)OCC)cc5c4cc3c2c1`, for which the TEAD-luciferase reporter activity runs as follows: (compound concentration: 200 nM) inactive: 0.612; (compound concentration: 2 uM) inactive: 1.12; (compound concentration: 10 uM) inactive: -0.472.

Take `CCc1[nH]c(=O)n(C(=O)c2ccccc2)c1C(=O)c1ccc(-n2ccnc2C)cc1` [analog of CK 3197]: the TEAD-luciferase reporter activity (compound concentration: 200 nM) was inactive: -1.7, the TEAD-luciferase reporter activity (compound concentration: 2 uM) is inactive: 1.58 and the TEAD-luciferase reporter activity (compound concentration: 10 uM) is inactive: 2.01.

As for `CO[C@@H](C(=O)N1Cc2[nH]nc(NC(=O)c3ccc(N4CCN(C)CC4)cc3)c2C1)c1ccccc1` [danusertib], the TEAD-luciferase reporter activity (compound concentration: 200 nM) is inactive: -0.804, the TEAD-luciferase reporter activity (compound concentration: 2 uM) was inactive: -2.38 and the TEAD-luciferase reporter activity (compound concentration: 10 uM) is inactive: -2.05.

For `CC1(C)SC2C(NC(=O)C(NC(=O)N3CCNC3=O)c3ccccc3)C(=O)N2C1C(=O)O` (configuration not stated) [azlocillin], the TEAD-luciferase reporter activity (compound concentration: 200 nM) was inactive: -1.78, the TEAD-luciferase reporter activity (compound concentration: 2 uM) was inactive: -0.92 and the TEAD-luciferase reporter activity (compound concentration: 10 uM) was inactive: -1.21.

As for `Nc1ccc(OS(=O)(=O)O)c(C(=O)O)c1`, the TEAD-luciferase reporter activity is inactive: 1.02 (compound concentration: 200 nM), inactive: 0.246 (compound concentration: 2 uM) and inactive: 0.864 (compound concentration: 10 uM).

Take `Cc1cn(C2OCC(O)C2CO)c(=O)[nH]c1=O` (configuration not stated): the TEAD-luciferase reporter activity is inactive: -0.774 (compound concentration: 200 nM), inactive: 0.445 (compound concentration: 2 uM) and inactive: -1.14 (compound concentration: 10 uM).

Consider `CC(C)NC(=O)C[C@H]1CCCN(C(=O)c2ccc(N3CCCC3)cc2Cl)c2ccccc21`, for which the TEAD-luciferase reporter activity is, setting by setting: (compound concentration: 200 nM) inactive: -0.451; (compound concentration: 2 uM) inactive: 1.06; (compound concentration: 10 uM) inactive: 1.79.

In the case of `COc1cc(C(=O)NCCCCCC(=O)O)cc(OC)c1OC`, the TEAD-luciferase reporter activity is, setting by setting: (compound concentration: 200 nM) inactive: -1.59; (compound concentration: 2 uM) inactive: 0.422; (compound concentration: 10 uM) inactive: 1.22.

In the case of `CC(=O)OC1CC[C@@]2(C)C(CC[C@]3(C)C2CCC2C4[C@H](C(C)C)CC[C@]4(CCOC(=O)CCC(=O)O)CC[C@]23C)C1(C)C` (some centres not stated), the TEAD-luciferase reporter activity (compound concentration: 200 nM) is inactive: -1.55, the TEAD-luciferase reporter activity (compound concentration: 2 uM) is inactive: -0.762 and the TEAD-luciferase reporter activity (compound concentration: 10 uM) is inactive: -0.265.

As to `COc1cc(O)c(-c2c(C)cc(OC)c3c(OC)cccc23)c2c1[C@H](C)NC(C)C2` (some centres not stated) [Ancistrocladine], the TEAD-luciferase reporter activity by setting is: (compound concentration: 200 nM) inactive: -0.763; (compound concentration: 10 uM) inactive: 1.92.

Regarding `COc1cc(O)c(-c2c(C)cc(OC)c3c(OC)cccc23)c2c1[C@H](C)NC(C)C2` (some centres not stated), the TEAD-luciferase reporter activity (compound concentration: 2 uM) was inactive: -1.1.
